In patent publication US9669016B2, “Antiparasitic effect of Bis[3,5-Bis(Benzylidene)-4-Oxo-1-Piperidinyl]amide Derivatives” (priority 2014, dated 2017):

Tests used:
[1] = system: Leishmania major promastigotes; experiment: Luciferase survival assay on L. major promastigotes; format: cell-based; conditions: for L. major Promastigotes TI (Therapeutic Index): (IC50 in Hs27 human fibroblasts)/(EC50 in parasites)
Procedure: Evaluation of the NC library activity against Leishmania major. The NC library (136 compounds) was screened using firefly luciferase-expressing L. major promastigotes referred to as Lmj-FV1-LUC-TK (L. major strain Friedlin (MHOM/JL/80/Friedlin) clone V1) engineered to express luciferase following integration of the construct pIR1SAT-LUC(a)-TK(b) (strain B5113) in the rRNA locus (S. M. Hickerson and S. M. Beverley, unpublished data). Enones (stock solutions in DMSO) were diluted (1 nM to 500 μM, in a final 1% DMSO) and added (1 μl per well) to 96-well microplates using an Eppendorf epMotion 5070 automated pipetting system. Promastigotes (10^6/well) were added, and parasite survival was assessed by luciferase activity with the substrate 5′-fluoroluciferin (ONE-Glo Luciferase Assay System, Promega) after 96-h incubation at 28° C., using a luminometer (Luminoskan, Thermo). The bioluminescent intensity was a direct measure of the survival of parasites. This was determined by comparing bioluminescent intensity of L. major parasites live/dead with MTT assay and cell counting. The primary compound screens were performed as single wells.

T. cruzi epimastigotes = experiment: Viability assay (Alamar Blue) on T. cruzi epimastigotes; format: cell-based, Trypanosoma cruzi; conditions: for T. cruzi Epimastigotes TI (Therapeutic Index): (IC50 in Hs27 human fibroblasts)/(EC50 in parasites)
Procedure: Viability assay on mammalian cells and T. cruzi epimastigotes. The cytotoxicity and anti-trypanosomal activity of the NC compounds was tested in human Hs27 fibroblasts (ATCC CRL-1634), LLC-MK2 cells (ATCC CCL-7), RAW 264.7 murine macrophages (ATCC TIB71) (American Type Culture Collection-ATCC, Manassa, Va.), mice intraperitoneal macrophages and in epimastigote forms of T. cruzi Y strain using Alamar Blue assay (Invitrogen—Life Technology, Grand Island, N.Y.). The experiments were performed as described using a range of concentration of 500 μM to 1 nM.

Structure (SMILES)	L. major Promastigotes TI (Therapeutic Index) [1]	fold difference between the EC50 of the parasites and the IC50 of all mammalian cell lines ([1]; all mammalian cell types tested) [fold]	T. cruzi Epimastigotes TI (Therapeutic Index) (T. cruzi epimastigotes)	fold difference in toxicity against T. cruzi (Y strain) as in L. major (T. cruzi epimastigotes; epimastigotes vs L. major promastigotes)
O=C1/C(=C/c2ccccc2)CN(C(=O)C(=O)N2C/C(=C\c3ccccc3)C(=O)/C(=C/c3ccccc3)C2)C/C1=C\c1ccccc1 [NC2459]	500	≥ 100	500	
CN(C)CC1CCC(CN(C)C)C1=O (centres unmarked) [NC884]	14.2		33.7	greater than 2 fold
CN(C)CC1CCCC(CN(C)C)C1=O (centres unmarked) [NC901]	35		34.19	
